These are yes or no findings as the source states them, for the method shown. Binding seen in cells or lysates may run through a third protein. Some binding calls cover weakened binding; strength is not graded here. Where a sequence is shown, tags or fusion partners need not be part of it. Blank lines part the entries; values can stand above or below the binder they belong to.
What was measured:
[1] = molecular target: FLAG-tagged mouse Mcl-1 (full-length) (mouse) (UniProt P97287); experiment: co-immunoprecipitation from 35S-labelled 293T cell lysates (FIG. 3B)
[2] = molecular target: FLAG-tagged mouse Mcl-1 (full-length) (mouse) (UniProt P97287); experiment: co-immunoprecipitation from 293T cells
[3] = molecular target: FLAG-tagged mouse Mcl-1 (full-length) (mouse) (UniProt P97287); experiment: co-immunoprecipitation from 35S-labelled 293T cell lysates
[4] = molecular target: FLAG-tagged mouse Mcl-1 (full-length) (mouse) (UniProt P97287); experiment: co-immunoprecipitation from 35S-labelled 293T lysates (IP anti-HA, anti-FLAG, control), fluorography
[5] = molecular target: FLAG-tagged mouse Mcl-1 (full-length) (mouse) (UniProt P97287); experiment: co-immunoprecipitation from 293T lysates, 35S fluorography (F) and immunoblot of the same filters (G) [G]
[6] = molecular target: FLAG-tagged mouse Mcl-1 (full-length) (mouse) (UniProt P97287); experiment: co-immunoprecipitation from 35S-labelled 293T cell lysates, immunoblot (FIG. 3F, 3G)
[7] = molecular target: FLAG-tagged human Bcl-2 (full-length) (human) (UniProt P10415); experiment: co-immunoprecipitation from 293T cells
[8] = molecular target: FLAG-tagged human Bcl-xL (full-length) (human) (UniProt Q07817); experiment: co-immunoprecipitation from 293T cells
[9] = molecular target: FLAG-tagged human Bcl-2 (full-length) (human) (UniProt P10415); experiment: co-immunoprecipitation from 35S-labelled 293T cell lysates
[10] = molecular target: FLAG-tagged human Bcl-xL (full-length) (human) (UniProt Q07817); experiment: as above
[11] = molecular target: FLAG-tagged human Bcl-2 (full-length) (human) (UniProt P10415); experiment: co-immunoprecipitation from 293T lysates, 35S fluorography (D) and immunoblot of the same filters (E) [E]
[12] = molecular target: FLAG-tagged human Bcl-xL (full-length) (human) (UniProt Q07817); experiment: as above
[13] = molecular target: FLAG-tagged human Bcl-2 (full-length) (human) (UniProt P10415); experiment: co-immunoprecipitation from 35S-labelled 293T cell lysates, immunoblot (FIG. 3D, 3E)
[14] = molecular target: FLAG-tagged human Bcl-xL (full-length) (human) (UniProt Q07817); experiment: as above

Amino acid sequences for entries named in this document (tags omitted). A change or cut given only in a name is not applied to a line headed by its entry. Chains listed by the source or under a name are the forms on record and can include a tag or linker.
FLAG-tagged mouse Mcl-1 (full-length) (P97287, form named): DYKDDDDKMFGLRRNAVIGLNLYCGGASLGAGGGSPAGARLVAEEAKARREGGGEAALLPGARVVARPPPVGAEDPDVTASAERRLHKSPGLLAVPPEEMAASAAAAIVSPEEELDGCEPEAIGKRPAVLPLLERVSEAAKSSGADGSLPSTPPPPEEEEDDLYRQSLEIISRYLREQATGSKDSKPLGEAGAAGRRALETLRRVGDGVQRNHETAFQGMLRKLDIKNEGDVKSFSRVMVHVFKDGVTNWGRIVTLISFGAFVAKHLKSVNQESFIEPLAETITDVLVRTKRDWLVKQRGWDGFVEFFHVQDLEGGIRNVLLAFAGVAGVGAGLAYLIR
FLAG-tagged human Bcl-2 (full-length) (P10415, form named): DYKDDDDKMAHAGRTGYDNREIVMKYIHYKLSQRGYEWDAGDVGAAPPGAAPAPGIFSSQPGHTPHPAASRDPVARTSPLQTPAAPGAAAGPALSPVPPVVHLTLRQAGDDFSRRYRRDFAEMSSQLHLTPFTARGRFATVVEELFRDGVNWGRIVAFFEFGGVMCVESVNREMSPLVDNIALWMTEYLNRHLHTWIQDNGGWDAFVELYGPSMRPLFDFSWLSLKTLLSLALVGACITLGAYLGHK
FLAG-tagged human Bcl-xL (full-length) (Q07817, form named): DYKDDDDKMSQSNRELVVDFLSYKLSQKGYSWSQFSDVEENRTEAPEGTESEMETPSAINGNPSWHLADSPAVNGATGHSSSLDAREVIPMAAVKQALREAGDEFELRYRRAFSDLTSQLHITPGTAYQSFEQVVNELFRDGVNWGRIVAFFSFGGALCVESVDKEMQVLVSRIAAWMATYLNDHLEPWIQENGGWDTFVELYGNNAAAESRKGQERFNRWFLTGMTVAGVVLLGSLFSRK

binding [1]: binds
binding [2]: binds
binding [3]: binds
binding [4]: binds
B1: HA-tagged full-length human Puma (protein)
chain: YPYDVPDYAMARARQEGSSPEPVEGLARDGPRPFPLGRLVPSAVSCGLCEPGLAAAPAAPTLLPAAYLCAPTAPPAVTAALGGSRWPGGPRSRPRGPRPDGPQPSLSLAEQHLESPVPSAPGALAGGPTQAAPGVRGEEEQWAREIGAQLRRMADDLNAQYERRRQEEQQRHRPSPWRVLYNLIMGLLPLPRGHRAPEMEPN

binding [2]: binds
binding [3]: binds
binding [5]: binds
binding [6]: binds
B2: HA-tagged full-length mouse Noxa (protein)
chain: YPYDVPDYAMPGRKARRNAPVNPTRAELPPEFAAQLRKIGDKVYCTWSAPDITVVLAQMPGKSQKSRMRSPSPTRVPADLKDECAQLRRIGDKVNLRQKLLNLISKLFNLVT

binding [7]: binds
binding [8]: binds
binding [9]: binds
binding [10]: binds
binding [11]: binds
binding [12]: binds
binding [13]: binds
binding [14]: binds
B3: HA-tagged full-length mouse Bad (protein)
chain: YPYDVPDYAMGTPKQPSLAPAHALGLRKSDPGIRSLGSDAGGRRWRPAAQSMFQIPEFEPSEQEDASATDRGLGPSLTEDQPGPYLAPGLLGSNIHQQGRAATNSHHGGAGAMETRSRHSSYPAGTEEDEGMEEELSPFRGRSRSAPPNLWAAQRYGRELRRMSDEFEGSFKGLPRPKSAGTATQMRQSAGWTRIIQSWWDRNLGKGGSTPSQ
